Measurements: paper PMC6347170
Where a chain is given by its changes, count along the chain named. Results are given in words; binding and its absence hold for the method and conditions named. In cells and extracts the contact can be indirect. Some entries that bind do so weakly or less than the wild type. For some of these results: Tags and fused reporters may be left off the sequences shown.

Tests used:
[1] = molecular target: T1, His14-Sec61S353C (S. cerevisiae) (UniProt P32915); assay: cross-linking; yeast microsomes (17 eq) in B88 pH 7.2 crosslinked with 1 mM SMPH (non-cleavable) or LC-SPDP (cleavable), 30 min on ice; SDS-PAGE and immunoblot with anti-Sec61 N-terminus and anti-Sec63; also after urea (no effect) or carbonate extraction (reduced crosslinking to Sss1 and Sec63)
T1 sequence: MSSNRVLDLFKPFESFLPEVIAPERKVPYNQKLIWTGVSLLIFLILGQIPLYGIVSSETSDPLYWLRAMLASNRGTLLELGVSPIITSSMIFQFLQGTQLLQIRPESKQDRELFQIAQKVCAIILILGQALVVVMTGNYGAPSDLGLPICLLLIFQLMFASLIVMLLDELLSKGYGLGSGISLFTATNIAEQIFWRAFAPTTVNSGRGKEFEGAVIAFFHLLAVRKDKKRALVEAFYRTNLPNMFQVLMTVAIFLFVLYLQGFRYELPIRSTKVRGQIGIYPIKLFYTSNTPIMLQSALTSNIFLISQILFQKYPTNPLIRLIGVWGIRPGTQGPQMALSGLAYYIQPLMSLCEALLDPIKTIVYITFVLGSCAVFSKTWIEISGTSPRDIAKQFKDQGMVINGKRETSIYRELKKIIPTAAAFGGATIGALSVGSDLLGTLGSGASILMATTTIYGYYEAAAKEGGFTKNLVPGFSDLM

[2] = molecular target: T2, Sec61S353C (S. cerevisiae) (UniProt P32915); assay: as above
T2 sequence: T1 sequence

[3] = molecular target: T3, Sec61 (wildtype) (S. cerevisiae) (UniProt P32915); assay: as above
T3 sequence: T1 sequence with C353S

[4] = molecular target: T2, Sec61S353C (S. cerevisiae); assay: cross-linking + co-IP; [35S]-labelled crude microsomes crosslinked with SMPH, LC-SPDP or SDAD, denatured, precipitated with anti-Sec61 N-terminus, crosslinker cleaved with DTT, released Mpd1-HA precipitated with anti-HA; phosphorimaging
[5] = molecular target: T3, Sec61 (wildtype) (S. cerevisiae); assay: as above

B1: Sss1 (protein, UniProt P35179 1-80)
chain: MARASEKGEEKKQSNNQVEKLVEAPVEFVREGTQFLAKCKKPDLKEYTKIVKAVGIGFIAVGIIGYAIKLIHIPIRYVIV
binding [1]: binds
binding [2]: binds
binding [3]: binds

B2: Mpd1-HA (protein, UniProt Q12404 22-318)
chain: QNFYDSDPHISELTPKSFDKAIHNTNYTSLVEFYAPWCGHCKKLSSTFRKAAKRLDGVVQVAAVNCDLNKNKALCAKYDVNGFPTLMVFRPPKIDLSKPIDNAKKSFSAHANEVYSGARTLAPIVDFSLSRIRSYVKKFVRIDTLGSLLRKSPKLSVVLFSKQDKISPVYKSIALDWLGKFDFYSISNKKLKQLTDMNPTYEKTPEIFKYLQKVIPEQRQSDKSKLVVFDADKDKFWEYEGNSINKNDISKFLRDTFSITPNEGPFSRRSEYIAYLKTGKKPIKKNHSSSGNKHDEL
binding [4]: binds
binding [5]: binds

B3: Sec63 (protein, UniProt P14906 1-663)
chain: MPTNYEYDEASETWPSFILTGLLMVVGPMTLLQIYQIFFGANAEDGNSGKSKEFNEEVFKNLNEEYTSDEIKQFRRKFDKNSNKKSKIWSRRNIIIIVGWILVAILLQRINSNDAIKDAATKLFDPYEILGISTSASDRDIKSAYRKLSVKFHPDKLAKGLTPDEKSVMEETYVQITKAYESLTDELVRQNYLKYGHPDGPQSTSHGIALPRFLVDGSASPLLVVCYVALLGLILPYFVSRWWARTQSYTKKGIHNVTASNFVSNLVNYKPSEIVTTDLILHWLSFAHEFKQFFPDLQPTDFEKLLQDHINRRDSGKLNNAKFRIVAKCHSLLHGLLDIACGFRNLDIALGAINTFKCIVQAVPLTPNCQILQLPNVDKEHFITKTGDIHTLGKLFTLEDAKIGEVLGIKDQAKLNETLRVASHIPNLKIIKADFLVPGENQVTPSSTPYISLKVLVRSAKQPLIPTSLIPEENLTEPQDFESQRDPFAMMSKQPLVPYSFAPFFPTKRRGSWCCLVSSQKDGKILQTPIIIEKLSYKNLNDDKDFFDKRIKMDLTKHEKFDINDWEIGTIKIPLGQPAPETVGDFFFRVIVKSTDYFTTDLDITMNMKVRDSPAVEQVEVYSEEDDEYSTDDDETESDDESDASDYTDIDTDTEAEDDESPE
binding [1]: binds
binding [2]: binds
